Laboratory results published in the supplement of paper PMC12823440, “Inhibitors supercharge kinase turnover through native proteolytic circuits” (Nature, 2025).
Where a name gives a salt, the structure may show the parent alone. The list shows a part of the results. Hit calls seldom repeat between salt and free forms of one compound.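 Kinases, fused to nanoluciferase, were expressed in K562 cells; luminescence was measured every 4 h from 2 to 18 h as percent of control (DMSO = 100%, positive control = 0%). A time point is decreased if signal falls significantly (2 sigma). Hits were called by the authors by a rule that is not shown; the count of time points alone does not decide it.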

Sequences of proteins named here, by UniProt entry; tags and fusion partners are left off. A change or cut given only in a name is not applied to a line headed by its entry.
UniProt Q9BRS2: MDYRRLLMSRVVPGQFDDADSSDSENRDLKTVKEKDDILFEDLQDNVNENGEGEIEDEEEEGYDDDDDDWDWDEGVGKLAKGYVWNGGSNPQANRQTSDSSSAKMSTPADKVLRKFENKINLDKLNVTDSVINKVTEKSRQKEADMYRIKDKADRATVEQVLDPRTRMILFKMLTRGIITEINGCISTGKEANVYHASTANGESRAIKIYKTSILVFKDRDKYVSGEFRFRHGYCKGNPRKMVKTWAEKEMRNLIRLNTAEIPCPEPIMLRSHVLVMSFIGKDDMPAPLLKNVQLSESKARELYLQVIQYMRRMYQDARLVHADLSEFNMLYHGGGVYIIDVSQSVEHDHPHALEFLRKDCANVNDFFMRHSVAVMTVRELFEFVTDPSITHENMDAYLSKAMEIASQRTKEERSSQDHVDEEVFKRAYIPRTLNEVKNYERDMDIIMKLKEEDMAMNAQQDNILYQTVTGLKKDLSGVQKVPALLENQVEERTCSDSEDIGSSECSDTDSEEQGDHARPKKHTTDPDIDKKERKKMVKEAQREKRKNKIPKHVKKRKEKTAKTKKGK
UniProt Q01974, whole entry: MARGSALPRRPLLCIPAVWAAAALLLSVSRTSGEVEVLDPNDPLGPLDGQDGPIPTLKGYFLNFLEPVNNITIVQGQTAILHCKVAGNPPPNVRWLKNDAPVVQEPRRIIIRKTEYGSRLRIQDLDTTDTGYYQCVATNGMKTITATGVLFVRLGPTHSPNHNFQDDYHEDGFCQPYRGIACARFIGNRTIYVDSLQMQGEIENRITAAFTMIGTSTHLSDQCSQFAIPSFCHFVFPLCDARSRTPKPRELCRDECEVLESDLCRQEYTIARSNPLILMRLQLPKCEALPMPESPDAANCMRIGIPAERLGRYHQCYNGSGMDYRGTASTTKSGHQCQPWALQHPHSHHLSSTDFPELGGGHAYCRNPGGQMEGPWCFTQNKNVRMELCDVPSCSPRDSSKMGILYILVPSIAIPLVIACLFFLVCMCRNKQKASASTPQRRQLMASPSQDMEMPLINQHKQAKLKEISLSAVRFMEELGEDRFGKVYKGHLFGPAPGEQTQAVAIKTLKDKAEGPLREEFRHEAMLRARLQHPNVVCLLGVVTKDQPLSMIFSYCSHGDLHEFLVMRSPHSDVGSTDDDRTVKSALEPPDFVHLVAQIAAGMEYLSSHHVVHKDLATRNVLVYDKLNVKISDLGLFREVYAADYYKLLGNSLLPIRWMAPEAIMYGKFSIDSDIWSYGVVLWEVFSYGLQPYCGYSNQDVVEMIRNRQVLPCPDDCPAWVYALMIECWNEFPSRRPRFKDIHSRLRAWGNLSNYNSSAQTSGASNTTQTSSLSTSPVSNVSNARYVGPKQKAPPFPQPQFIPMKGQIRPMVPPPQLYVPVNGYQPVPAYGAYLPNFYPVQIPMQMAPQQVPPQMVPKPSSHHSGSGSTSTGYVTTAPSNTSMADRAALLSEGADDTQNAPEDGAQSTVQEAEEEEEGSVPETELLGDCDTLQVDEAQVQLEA
UniProt Q15418, whole entry: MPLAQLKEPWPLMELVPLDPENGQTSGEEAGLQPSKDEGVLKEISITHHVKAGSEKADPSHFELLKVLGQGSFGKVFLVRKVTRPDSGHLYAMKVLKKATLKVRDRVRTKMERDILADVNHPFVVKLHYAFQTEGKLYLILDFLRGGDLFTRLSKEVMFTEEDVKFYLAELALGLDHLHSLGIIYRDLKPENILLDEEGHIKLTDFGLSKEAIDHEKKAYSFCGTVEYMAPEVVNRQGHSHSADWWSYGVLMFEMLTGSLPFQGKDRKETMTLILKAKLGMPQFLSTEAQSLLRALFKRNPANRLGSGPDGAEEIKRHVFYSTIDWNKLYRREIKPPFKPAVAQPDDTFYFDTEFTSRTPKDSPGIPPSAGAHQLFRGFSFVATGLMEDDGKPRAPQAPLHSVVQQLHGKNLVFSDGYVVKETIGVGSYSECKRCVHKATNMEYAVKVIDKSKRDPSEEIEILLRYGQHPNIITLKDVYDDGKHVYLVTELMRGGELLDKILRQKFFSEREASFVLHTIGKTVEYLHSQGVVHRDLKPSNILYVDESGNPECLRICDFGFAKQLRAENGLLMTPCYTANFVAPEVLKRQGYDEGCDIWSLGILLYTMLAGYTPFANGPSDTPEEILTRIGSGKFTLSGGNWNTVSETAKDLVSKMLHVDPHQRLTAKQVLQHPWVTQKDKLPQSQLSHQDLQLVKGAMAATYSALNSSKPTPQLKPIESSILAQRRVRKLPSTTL
UniProt Q15208: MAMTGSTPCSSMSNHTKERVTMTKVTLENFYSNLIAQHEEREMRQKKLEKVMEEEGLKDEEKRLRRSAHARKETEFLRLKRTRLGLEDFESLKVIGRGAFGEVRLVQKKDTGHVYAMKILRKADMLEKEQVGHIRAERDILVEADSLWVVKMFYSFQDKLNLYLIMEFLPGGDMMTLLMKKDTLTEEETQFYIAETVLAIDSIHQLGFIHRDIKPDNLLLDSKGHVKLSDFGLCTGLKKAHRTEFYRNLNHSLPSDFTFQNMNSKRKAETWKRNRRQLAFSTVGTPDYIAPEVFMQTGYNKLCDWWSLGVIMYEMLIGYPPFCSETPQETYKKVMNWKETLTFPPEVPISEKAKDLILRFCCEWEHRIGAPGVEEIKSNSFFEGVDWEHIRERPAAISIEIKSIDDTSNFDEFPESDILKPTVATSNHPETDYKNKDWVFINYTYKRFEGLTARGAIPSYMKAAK
UniProt P42680: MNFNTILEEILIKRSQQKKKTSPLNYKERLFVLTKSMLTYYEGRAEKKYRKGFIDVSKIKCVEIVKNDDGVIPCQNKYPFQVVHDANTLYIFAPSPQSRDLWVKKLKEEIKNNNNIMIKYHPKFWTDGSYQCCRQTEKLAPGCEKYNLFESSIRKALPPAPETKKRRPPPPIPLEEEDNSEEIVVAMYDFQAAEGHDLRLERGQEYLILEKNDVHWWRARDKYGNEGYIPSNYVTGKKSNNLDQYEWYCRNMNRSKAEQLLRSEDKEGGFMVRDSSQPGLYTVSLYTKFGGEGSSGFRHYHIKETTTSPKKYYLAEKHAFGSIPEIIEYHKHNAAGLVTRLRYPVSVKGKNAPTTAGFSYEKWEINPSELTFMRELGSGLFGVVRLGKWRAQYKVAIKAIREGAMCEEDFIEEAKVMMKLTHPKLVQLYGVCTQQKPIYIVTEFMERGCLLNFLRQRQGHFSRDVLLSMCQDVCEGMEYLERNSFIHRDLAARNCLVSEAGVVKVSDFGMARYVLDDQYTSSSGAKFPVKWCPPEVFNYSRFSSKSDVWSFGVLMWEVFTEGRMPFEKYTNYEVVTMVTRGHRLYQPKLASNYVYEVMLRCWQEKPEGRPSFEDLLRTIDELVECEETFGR
UniProt P29597: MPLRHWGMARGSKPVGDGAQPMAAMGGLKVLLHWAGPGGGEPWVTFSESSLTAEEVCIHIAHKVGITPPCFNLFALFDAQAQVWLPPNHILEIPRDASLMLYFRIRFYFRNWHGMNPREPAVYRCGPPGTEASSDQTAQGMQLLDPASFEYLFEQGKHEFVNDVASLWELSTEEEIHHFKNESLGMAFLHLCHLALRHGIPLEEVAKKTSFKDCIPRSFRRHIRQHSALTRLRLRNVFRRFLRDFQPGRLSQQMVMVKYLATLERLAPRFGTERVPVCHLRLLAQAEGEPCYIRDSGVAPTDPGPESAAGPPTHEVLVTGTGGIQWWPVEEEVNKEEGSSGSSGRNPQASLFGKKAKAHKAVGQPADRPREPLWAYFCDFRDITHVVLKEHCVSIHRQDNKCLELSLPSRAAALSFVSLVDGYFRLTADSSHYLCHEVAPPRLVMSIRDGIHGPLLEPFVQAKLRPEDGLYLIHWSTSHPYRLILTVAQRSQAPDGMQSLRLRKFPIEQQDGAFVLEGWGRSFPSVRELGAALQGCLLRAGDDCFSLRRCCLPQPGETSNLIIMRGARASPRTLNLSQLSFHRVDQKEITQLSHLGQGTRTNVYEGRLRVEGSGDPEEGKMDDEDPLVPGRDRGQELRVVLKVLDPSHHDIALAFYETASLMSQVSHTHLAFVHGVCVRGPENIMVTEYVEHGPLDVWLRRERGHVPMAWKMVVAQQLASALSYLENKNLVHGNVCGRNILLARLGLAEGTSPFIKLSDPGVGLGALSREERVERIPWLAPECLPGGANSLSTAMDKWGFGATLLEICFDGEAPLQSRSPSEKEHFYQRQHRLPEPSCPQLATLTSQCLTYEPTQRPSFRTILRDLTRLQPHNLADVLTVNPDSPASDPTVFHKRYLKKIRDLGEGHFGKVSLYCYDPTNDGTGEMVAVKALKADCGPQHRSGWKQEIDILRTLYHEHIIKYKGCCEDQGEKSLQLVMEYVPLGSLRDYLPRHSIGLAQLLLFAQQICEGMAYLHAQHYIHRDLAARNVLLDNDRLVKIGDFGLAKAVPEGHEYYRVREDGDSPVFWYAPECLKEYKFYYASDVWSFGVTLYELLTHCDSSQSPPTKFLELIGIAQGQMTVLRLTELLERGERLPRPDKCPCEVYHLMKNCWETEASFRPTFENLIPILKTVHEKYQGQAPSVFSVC
UniProt Q6PHR2: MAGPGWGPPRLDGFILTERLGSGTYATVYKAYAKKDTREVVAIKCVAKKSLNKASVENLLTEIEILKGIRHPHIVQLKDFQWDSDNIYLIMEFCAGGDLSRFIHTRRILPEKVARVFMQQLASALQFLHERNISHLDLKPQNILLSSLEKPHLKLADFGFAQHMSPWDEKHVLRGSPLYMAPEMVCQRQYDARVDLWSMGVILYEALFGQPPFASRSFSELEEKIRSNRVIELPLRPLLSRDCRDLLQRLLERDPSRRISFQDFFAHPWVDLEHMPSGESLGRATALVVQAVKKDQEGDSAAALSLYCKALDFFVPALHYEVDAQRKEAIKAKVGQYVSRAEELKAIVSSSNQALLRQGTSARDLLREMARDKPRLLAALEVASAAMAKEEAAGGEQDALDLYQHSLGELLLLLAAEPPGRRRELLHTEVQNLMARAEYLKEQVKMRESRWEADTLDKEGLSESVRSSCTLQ
UniProt P07947, whole entry, looked up: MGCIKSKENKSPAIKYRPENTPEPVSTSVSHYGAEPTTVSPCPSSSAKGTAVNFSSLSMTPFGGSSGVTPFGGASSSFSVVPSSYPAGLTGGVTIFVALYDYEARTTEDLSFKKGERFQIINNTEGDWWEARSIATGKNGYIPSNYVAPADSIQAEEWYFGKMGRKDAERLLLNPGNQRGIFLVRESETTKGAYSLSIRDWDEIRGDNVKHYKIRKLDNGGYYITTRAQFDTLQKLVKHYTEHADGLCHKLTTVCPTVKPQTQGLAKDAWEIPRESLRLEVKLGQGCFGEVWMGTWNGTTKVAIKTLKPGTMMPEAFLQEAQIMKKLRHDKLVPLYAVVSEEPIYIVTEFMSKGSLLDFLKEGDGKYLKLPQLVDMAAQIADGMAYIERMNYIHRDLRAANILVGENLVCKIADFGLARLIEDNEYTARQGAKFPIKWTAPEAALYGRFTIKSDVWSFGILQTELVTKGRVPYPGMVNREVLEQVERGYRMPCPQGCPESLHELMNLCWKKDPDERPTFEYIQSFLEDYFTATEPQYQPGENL
UniProt P43403: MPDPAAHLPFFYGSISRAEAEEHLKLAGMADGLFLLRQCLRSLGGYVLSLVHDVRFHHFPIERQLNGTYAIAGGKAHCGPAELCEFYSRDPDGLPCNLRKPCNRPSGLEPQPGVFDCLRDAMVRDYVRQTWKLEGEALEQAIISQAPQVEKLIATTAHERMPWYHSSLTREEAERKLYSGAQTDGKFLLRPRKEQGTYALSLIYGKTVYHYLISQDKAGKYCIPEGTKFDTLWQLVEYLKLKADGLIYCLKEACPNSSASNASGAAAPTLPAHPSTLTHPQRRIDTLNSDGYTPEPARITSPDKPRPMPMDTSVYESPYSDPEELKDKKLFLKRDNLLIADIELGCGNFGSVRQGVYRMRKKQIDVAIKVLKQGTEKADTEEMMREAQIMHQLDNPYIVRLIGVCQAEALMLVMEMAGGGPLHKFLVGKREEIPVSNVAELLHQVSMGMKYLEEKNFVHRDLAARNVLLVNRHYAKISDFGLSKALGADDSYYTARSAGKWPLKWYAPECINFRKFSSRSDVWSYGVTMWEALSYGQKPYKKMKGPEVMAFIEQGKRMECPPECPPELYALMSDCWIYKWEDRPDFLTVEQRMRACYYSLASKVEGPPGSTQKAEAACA
UniProt P11802: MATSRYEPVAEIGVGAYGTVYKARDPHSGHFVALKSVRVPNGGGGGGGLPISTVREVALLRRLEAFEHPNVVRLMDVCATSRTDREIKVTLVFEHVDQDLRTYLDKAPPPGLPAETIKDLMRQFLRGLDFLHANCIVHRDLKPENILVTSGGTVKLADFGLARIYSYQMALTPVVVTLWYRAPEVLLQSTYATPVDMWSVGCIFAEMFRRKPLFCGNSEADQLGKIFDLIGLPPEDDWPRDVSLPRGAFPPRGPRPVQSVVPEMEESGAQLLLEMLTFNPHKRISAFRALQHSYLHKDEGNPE

Tests used:
Conditions in all cases: K562, 2-18 h
RET = RET (UniProt P07949); test: kinase-Nluc reporter destabilization hit call (1 = scored as downregulated) (binary); higher = compound decreases kinase abundance
[1] = molecular target: RET_M918T (clone: RET_mut) (UniProt P07949); test: as above
RIOK1 = RIOK1 (UniProt Q9BRS2); test: as above
RIPK1 = RIPK1 (UniProt Q13546); test: as above
RIPK2 = RIPK2 (UniProt O43353); test: as above
ROR2 = ROR2 (UniProt Q01974); test: as above
RPS6KA1 = RPS6KA1 (UniProt Q15418); test: as above
SPHK1 = SPHK1 (UniProt Q9NYA1); test: as above
SRC = SRC (UniProt P12931); test: as above
STK24 = STK24 (UniProt Q9Y6E0); test: as above
STK38 = STK38 (UniProt Q15208); test: as above
SYK = SYK (UniProt P43405); test: as above
TEC = TEC (UniProt P42680); test: as above
TYK2 = TYK2 (UniProt P29597); test: as above
ULK3 = ULK3 (UniProt Q6PHR2); test: as above
YES1 = YES1 (UniProt P07947); test: as above
ZAK = ZAK (UniProt Q9NYL2); test: as above
ZAP70 = ZAP70 (UniProt P43403); test: as above
CDK4 = CDK4 (UniProt P11802); test: number of time points (of 4; 2 h point missing) at which kinase-Nluc abundance scored as decreased, DMSO-normalised (count); higher = more persistent destabilization
CDK7 = CDK7 (UniProt P50613); test: as above

Structure (SMILES)	kinase-Nluc reporter destabilization hit call (RET; 10 µM)	kinase-Nluc reporter destabilization hit call ([1]; 10 µM)	kinase-Nluc reporter destabilization hit call (RIOK1; 10 µM)	kinase-Nluc reporter destabilization hit call (RIPK1; 10 µM)	kinase-Nluc reporter destabilization hit call (RIPK2; 10 µM)	kinase-Nluc reporter destabilization hit call (ROR2; 10 µM)	kinase-Nluc reporter destabilization hit call (RPS6KA1; 10 µM)	kinase-Nluc reporter destabilization hit call (SPHK1; 10 µM)	kinase-Nluc reporter destabilization hit call (SRC; 10 µM)	kinase-Nluc reporter destabilization hit call (STK24; 10 µM)	kinase-Nluc reporter destabilization hit call (STK38; 10 µM)	kinase-Nluc reporter destabilization hit call (SYK; 10 µM)	kinase-Nluc reporter destabilization hit call (TEC; 10 µM)	kinase-Nluc reporter destabilization hit call (TYK2; 10 µM)	kinase-Nluc reporter destabilization hit call (ULK3; 10 µM)	kinase-Nluc reporter destabilization hit call (YES1; 10 µM)	kinase-Nluc reporter destabilization hit call (ZAK; 10 µM)	kinase-Nluc reporter destabilization hit call (ZAP70; 10 µM)	number of time points (CDK4; 10 µM)	number of time points (CDK7; 10 µM)	kinase-Nluc reporter destabilization hit call (RET; 2.5 µM)	kinase-Nluc reporter destabilization hit call ([1]; 2.5 µM)	kinase-Nluc reporter destabilization hit call (RIOK1; 2.5 µM)	kinase-Nluc reporter destabilization hit call (RIPK1; 2.5 µM)	kinase-Nluc reporter destabilization hit call (RIPK2; 2.5 µM)	kinase-Nluc reporter destabilization hit call (ROR2; 2.5 µM)	kinase-Nluc reporter destabilization hit call (RPS6KA1; 2.5 µM)	kinase-Nluc reporter destabilization hit call (SPHK1; 2.5 µM)	kinase-Nluc reporter destabilization hit call (SRC; 2.5 µM)	kinase-Nluc reporter destabilization hit call (STK24; 2.5 µM)	kinase-Nluc reporter destabilization hit call (STK38; 2.5 µM)	kinase-Nluc reporter destabilization hit call (SYK; 2.5 µM)	kinase-Nluc reporter destabilization hit call (TEC; 2.5 µM)	kinase-Nluc reporter destabilization hit call (TYK2; 2.5 µM)	kinase-Nluc reporter destabilization hit call (ULK3; 2.5 µM)	kinase-Nluc reporter destabilization hit call (YES1; 2.5 µM)	kinase-Nluc reporter destabilization hit call (ZAK; 2.5 µM)	kinase-Nluc reporter destabilization hit call (ZAP70; 2.5 µM)	number of time points (CDK4; 2.5 µM)	number of time points (CDK7; 2.5 µM)
C[C@H]1CN(C2COC2)CCN1c1ccc(Nc2cc(-c3ccnc(N4CCn5c(cc6c5CC(C)(C)C6)C4=O)c3CO)cn(C)c2=O)nc1 [Fenebrutinib]	inactive: 0	inactive: 0	inactive: 0	inactive: 0	inactive: 0	inactive: 0	inactive: 0	inactive: 0	inactive: 0	inactive: 0	inactive: 0	inactive: 0	inactive: 0	inactive: 0	inactive: 0	inactive: 0	inactive: 0	inactive: 0	0	0	–	–	–	–	–	–	–	–	–	–	–	–	–	–	–	–	–	–	–	–
Cc1cnc(Nc2ccc(OCCN3CCCC3)cc2)nc1Nc1cccc(S(=O)(=O)NC(C)(C)C)c1 [Fedratinib]	–	–	–	–	–	–	–	–	–	–	–	–	–	–	–	–	–	–	–	–	inactive: 0	inactive: 0	inactive: 0	inactive: 0	inactive: 0	inactive: 0	inactive: 0	inactive: 0	inactive: 0	inactive: 0	inactive: 0	inactive: 0	inactive: 0	inactive: 0	inactive: 0	inactive: 0	inactive: 0	inactive: 0	0	0
O=S(=O)(c1cccc2c(O)nccc12)N1CCCNCC1 [Hydroxyfasudil]	inactive: 0	inactive: 0	inactive: 0	inactive: 0	inactive: 0	inactive: 0	inactive: 0	inactive: 0	inactive: 0	inactive: 0	inactive: 0	inactive: 0	inactive: 0	inactive: 0	inactive: 0	inactive: 0	inactive: 0	inactive: 0	0	0	–	–	–	–	–	–	–	–	–	–	–	–	–	–	–	–	–	–	–	–
C[C@@H]1O[C@@H](Oc2c(-c3ccc(O)c(O)c3)oc3cc(O)cc(O)c3c2=O)[C@H](O)[C@H](O)[C@H]1O [Quercitrin]	inactive: 0	inactive: 0	inactive: 0	inactive: 0	inactive: 0	inactive: 0	inactive: 0	inactive: 0	inactive: 0	inactive: 0	inactive: 0	inactive: 0	inactive: 0	inactive: 0	inactive: 0	inactive: 0	inactive: 0	inactive: 0	0	0	–	–	–	–	–	–	–	–	–	–	–	–	–	–	–	–	–	–	–	–
COc1cc2ncnc(Nc3cccc(Br)c3)c2cc1OC	inactive: 0	inactive: 0	inactive: 0	inactive: 0	inactive: 0	inactive: 0	inactive: 0	inactive: 0	inactive: 0	inactive: 0	inactive: 0	inactive: 0	inactive: 0	inactive: 0	inactive: 0	inactive: 0	inactive: 0	inactive: 0	0	0	–	–	–	–	–	–	–	–	–	–	–	–	–	–	–	–	–	–	–	–
COc1ccc(-c2c[nH]c3nccc(-c4ccsc4)c23)c(OC)c1	inactive: 0	inactive: 0	inactive: 0	inactive: 0	inactive: 0	inactive: 0	inactive: 0	inactive: 0	inactive: 0	inactive: 0	inactive: 0	inactive: 0	inactive: 0	inactive: 0	inactive: 0	inactive: 0	inactive: 0	inactive: 0	0	1	–	–	–	–	–	–	–	–	–	–	–	–	–	–	–	–	–	–	–	–
C=CC(=O)N(C)CCOc1c(N)ncnc1-c1cc(F)cc(NC(=O)c2ccc(C3CC3)cc2F)c1C [Remibrutinib]	inactive: 0	inactive: 0	inactive: 0	inactive: 0	inactive: 0	inactive: 0	inactive: 0	inactive: 0	inactive: 0	inactive: 0	inactive: 0	inactive: 0	inactive: 0	inactive: 0	inactive: 0	inactive: 0	inactive: 0	inactive: 0	0	0	–	–	–	–	–	–	–	–	–	–	–	–	–	–	–	–	–	–	–	–
CCCCCC1CC1CC1CC1CCCCCCCC(=O)OC (stereo not given)	inactive: 0	inactive: 0	inactive: 0	inactive: 0	inactive: 0	inactive: 0	inactive: 0	inactive: 0	inactive: 0	inactive: 0	inactive: 0	inactive: 0	inactive: 0	inactive: 0	inactive: 0	inactive: 0	inactive: 0	inactive: 0	0	0	–	–	–	–	–	–	–	–	–	–	–	–	–	–	–	–	–	–	–	–
C[C@@H]1CN(C(=O)Nc2ccc(-c3nc(N4CCOCC4)c4cnn(CCCCCCC(=O)NO)c4n3)cc2)CCO1 [HDACs/mTOR Inhibitor 1]	inactive: 0	inactive: 0	inactive: 0	inactive: 0	inactive: 0	inactive: 0	inactive: 0	inactive: 0	inactive: 0	inactive: 0	inactive: 0	inactive: 0	inactive: 0	inactive: 0	inactive: 0	inactive: 0	inactive: 0	inactive: 0	0	0	–	–	–	–	–	–	–	–	–	–	–	–	–	–	–	–	–	–	–	–
O=C(NCCCNc1nc(Nc2cccc(CN3CCOCC3)c2)ncc1C1CC1)C1CCC1	inactive: 0	inactive: 0	inactive: 0	inactive: 0	inactive: 0	inactive: 0	inactive: 0	inactive: 0	inactive: 0	inactive: 0	inactive: 0	inactive: 0	inactive: 0	inactive: 0	inactive: 0	inactive: 0	inactive: 0	inactive: 0	0	0	–	–	–	–	–	–	–	–	–	–	–	–	–	–	–	–	–	–	–	–
C[C@H]1Oc2cc(cnc2N)-c2c(nn(C)c2C#N)CN(C)C(=O)c2ccc(F)cc21 [Lorlatinib]	inactive: 0	inactive: 0	inactive: 0	inactive: 0	inactive: 0	inactive: 0	inactive: 0	inactive: 0	inactive: 0	inactive: 0	inactive: 0	inactive: 0	inactive: 0	inactive: 0	inactive: 0	inactive: 0	inactive: 0	inactive: 0	0	0	–	–	–	–	–	–	–	–	–	–	–	–	–	–	–	–	–	–	–	–
O=C(Nc1cccc(Nc2nccc(Nc3cccc(C(F)(F)F)c3)n2)c1)C1CC1 [Aurora kinase inhibitor-3]	–	–	–	–	–	–	–	–	–	–	–	–	–	–	–	–	–	–	–	–	inactive: 0	inactive: 0	inactive: 0	inactive: 0	inactive: 0	inactive: 0	inactive: 0	inactive: 0	inactive: 0	inactive: 0	inactive: 0	inactive: 0	inactive: 0	inactive: 0	inactive: 0	inactive: 0	inactive: 0	inactive: 0	0	0
Nc1ncccc1-c1nc2ccc(-c3ccccc3)nc2n1-c1ccc(C2(N)CCC2)cc1 [Miransertib]	inactive: 0	inactive: 0	inactive: 0	inactive: 0	inactive: 0	inactive: 0	inactive: 0	inactive: 0	inactive: 0	inactive: 0	inactive: 0	inactive: 0	inactive: 0	inactive: 0	inactive: 0	inactive: 0	inactive: 0	inactive: 0	0	2	–	–	–	–	–	–	–	–	–	–	–	–	–	–	–	–	–	–	–	–
Cc1ccc2c(=O)c3cccc(CC(=O)O)c3oc2c1C [Vadimezan]	inactive: 0	inactive: 0	inactive: 0	inactive: 0	inactive: 0	inactive: 0	inactive: 0	inactive: 0	inactive: 0	inactive: 0	inactive: 0	inactive: 0	inactive: 0	inactive: 0	inactive: 0	inactive: 0	inactive: 0	inactive: 0	0	0	–	–	–	–	–	–	–	–	–	–	–	–	–	–	–	–	–	–	–	–
Cc1ccc(-n2nc(C(C)(C)C)cc2NC(=O)Nc2ccc(OCCN3CCOCC3)c3ccccc23)cc1 [Doramapimod]	inactive: 0	inactive: 0	inactive: 0	inactive: 0	inactive: 0	inactive: 0	inactive: 0	inactive: 0	inactive: 0	inactive: 0	inactive: 0	inactive: 0	inactive: 0	inactive: 0	inactive: 0	inactive: 0	inactive: 0	inactive: 0	0	0	–	–	–	–	–	–	–	–	–	–	–	–	–	–	–	–	–	–	–	–
COc1cc(N2CCN(C)CC2)ccc1Nc1nccc(-c2cn(C)c3cnccc23)n1	inactive: 0	inactive: 0	inactive: 0	inactive: 0	inactive: 0	inactive: 0	inactive: 0	inactive: 0	inactive: 0	inactive: 0	inactive: 0	inactive: 0	inactive: 0	inactive: 0	inactive: 0	inactive: 0	inactive: 0	inactive: 0	0	0	–	–	–	–	–	–	–	–	–	–	–	–	–	–	–	–	–	–	–	–
Cc1ccc(Nc2nccc(N(C)c3ccc4c(C)n(C)nc4c3)n2)cc1S(N)(=O)=O [Pazopanib (Hydrochloride)]	inactive: 0	inactive: 0	inactive: 0	inactive: 0	inactive: 0	inactive: 0	inactive: 0	inactive: 0	inactive: 0	inactive: 0	inactive: 0	inactive: 0	inactive: 0	inactive: 0	inactive: 0	inactive: 0	inactive: 0	inactive: 0	0	0	–	–	–	–	–	–	–	–	–	–	–	–	–	–	–	–	–	–	–	–
CCn1c(=O)c(-c2cc(NC(=O)Nc3ccccc3)c(F)cc2Br)cc2cnc(NC)cc21 [Ripretinib]	inactive: 0	inactive: 0	inactive: 0	inactive: 0	inactive: 0	inactive: 0	inactive: 0	inactive: 0	inactive: 0	inactive: 0	inactive: 0	inactive: 0	inactive: 0	inactive: 0	inactive: 0	inactive: 0	inactive: 0	inactive: 0	0	3	–	–	–	–	–	–	–	–	–	–	–	–	–	–	–	–	–	–	–	–
O=S(=O)(c1cccc2c(O)nccc12)N1CCCNCC1 [Hydroxyfasudil (hydrochloride)]	inactive: 0	inactive: 0	inactive: 0	inactive: 0	inactive: 0	inactive: 0	inactive: 0	inactive: 0	inactive: 0	inactive: 0	inactive: 0	inactive: 0	inactive: 0	inactive: 0	inactive: 0	inactive: 0	inactive: 0	inactive: 0	0	0	–	–	–	–	–	–	–	–	–	–	–	–	–	–	–	–	–	–	–	–
